Data as given in article PMC4997581.
No constants are given. Whether binding was seen depends on the method and setting. In cells and extracts the contact can be indirect. These calls come from enrichment with a bait or labelling near it, and not all partners need be listed. For part of these data: Sequences can lack the tags named with a protein.

The chains behind the UniProt entries cited, without tags or fusion partners.
UniProt P14635: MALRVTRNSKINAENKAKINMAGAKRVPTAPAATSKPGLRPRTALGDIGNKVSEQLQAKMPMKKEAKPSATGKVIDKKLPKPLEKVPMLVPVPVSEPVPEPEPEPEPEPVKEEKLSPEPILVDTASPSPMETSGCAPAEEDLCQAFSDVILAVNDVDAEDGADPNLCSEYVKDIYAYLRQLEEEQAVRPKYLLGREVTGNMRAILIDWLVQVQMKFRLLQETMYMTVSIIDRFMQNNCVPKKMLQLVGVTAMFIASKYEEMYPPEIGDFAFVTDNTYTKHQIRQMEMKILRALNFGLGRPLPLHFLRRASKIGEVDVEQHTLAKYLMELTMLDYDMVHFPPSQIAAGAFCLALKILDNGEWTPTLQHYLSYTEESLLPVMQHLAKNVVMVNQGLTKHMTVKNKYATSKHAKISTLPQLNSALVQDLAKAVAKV
UniProt O60563: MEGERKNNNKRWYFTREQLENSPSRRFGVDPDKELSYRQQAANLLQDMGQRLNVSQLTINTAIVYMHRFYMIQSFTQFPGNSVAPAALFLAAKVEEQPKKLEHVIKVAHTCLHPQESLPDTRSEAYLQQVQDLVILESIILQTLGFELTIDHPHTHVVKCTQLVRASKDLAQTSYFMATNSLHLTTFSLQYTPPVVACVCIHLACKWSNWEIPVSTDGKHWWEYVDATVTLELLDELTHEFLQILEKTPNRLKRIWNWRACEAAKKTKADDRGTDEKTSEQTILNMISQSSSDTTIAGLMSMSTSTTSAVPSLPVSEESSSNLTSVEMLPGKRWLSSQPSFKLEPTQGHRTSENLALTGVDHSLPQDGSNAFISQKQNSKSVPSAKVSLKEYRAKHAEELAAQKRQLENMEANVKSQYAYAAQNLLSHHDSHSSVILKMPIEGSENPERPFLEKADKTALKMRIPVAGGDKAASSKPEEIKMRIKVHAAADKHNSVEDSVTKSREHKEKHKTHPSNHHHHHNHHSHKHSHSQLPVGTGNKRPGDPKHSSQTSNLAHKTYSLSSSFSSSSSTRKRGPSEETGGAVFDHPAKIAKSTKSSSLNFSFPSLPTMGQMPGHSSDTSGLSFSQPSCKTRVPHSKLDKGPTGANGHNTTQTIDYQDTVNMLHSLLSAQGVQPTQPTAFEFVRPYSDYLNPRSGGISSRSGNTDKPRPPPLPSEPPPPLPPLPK

T1: Cyclin H (human (endogenous in 293T and HFF)) (UniProt P51946)
T1 sequence: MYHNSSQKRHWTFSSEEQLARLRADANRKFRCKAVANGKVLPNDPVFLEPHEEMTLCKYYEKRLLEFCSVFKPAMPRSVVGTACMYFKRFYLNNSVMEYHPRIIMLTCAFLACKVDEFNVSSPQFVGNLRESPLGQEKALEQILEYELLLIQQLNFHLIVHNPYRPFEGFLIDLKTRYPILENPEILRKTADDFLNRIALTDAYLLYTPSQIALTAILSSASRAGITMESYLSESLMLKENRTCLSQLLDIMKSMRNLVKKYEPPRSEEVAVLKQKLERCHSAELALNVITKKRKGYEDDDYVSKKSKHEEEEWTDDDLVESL


Experiments:
[1] = biological target: Cyclin B1 (human (endogenous in 293T and HFF)) (UniProt P14635); test: affinity purification with mass spectrom
[2] = biological target: T1, Cyclin H (human (endogenous in 293T and HFF)); test: affinity purification with mass spectrom
[3] = biological target: Cyclin T1 (human (endogenous in 293T and HFF)) (UniProt O60563); test: affinity purification with mass spectrom
[4] = biological target: HCMV protein kinase pUL97, Flag-tagged (pUL97-Flag) (human cytomegalovirus) (UniProt P16788); test: affinity purification with mass spectrometry
[5] = biological target: Cyclin B1 (human (endogenous in 293T and HFF)), P14635; test: affinity purification with mass spectrometry; conditions: remark: other sources report otherwise

Binder	binding [1]	binding [2]	binding [3]	binding [4]	binding [5]
CDK inhibitor 1C (protein, UniProt P49918 1-316) MSDASLRSTSTMERLVARGTFPVLVRTSACRSLFGPVDHEELSRELQARLAELNAEDQNRWDYDFQQDMPLRGPGRLQWTEVDSDSVPAFYRETVQVGRCRLLLAPRPVAVAVAVSPPLEPAAESLDGLEEAPEQLPSVPVPAPASTPPPVPVLAPAPAPAPAPVAAPVAAPVAVAVLAPAPAPAPAPAPAPAPVAAPAPAPAPAPAPAPAPAPAPDAAPQESAEQGANQGQRGQEPLADQLHSGISGRPAAGTAAASANGAAIKKLSGPLISDFFAKRKRSAPEKSSGDVPAPCPSPSAAPGVGSVEQTPRKRLR	binds				
Major CDK9 EF-associated protein (protein, UniProt Q9UHB7 1-1163) MNREDRNVLRMKERERRNQEIQQGEDAFPPSSPLFAEPYKVTSKEDKLSSRIQSMLGNYDEMKDFIGDRSIPKLVAIPKPTVPPSADEKSNPNFFEQRHGGSHQSSKWTPVGPAPSTSQSQKRSSGLQSGHSSQRTSAGSSSGTNSSGQRHDRESYNNSGSSSRKKGQHGSEHSKSRSSSPGKPQAVSSLNSSHSRSHGNDHHSKEHQRSKSPRDPDANWDSPSRVPFSSGQHSTQSFPPSLMSKSNSMLQKPTAYVRPMDGQESMEPKLSSEHYSSQSHGNSMTELKPSSKAHLTKLKIPSQPLDASASGDVSCVDEILKEMTHSWPPPLTAIHTPCKTEPSKFPFPTKESQQSNFGTGEQKRYNPSKTSNGHQSKSMLKDDLKLSSSEDSDGEQDCDKTMPRSTPGSNSEPSHHNSEGADNSRDDSSSHSGSESSSGSDSESESSSSDSEANEPSQSASPEPEPPPTNKWQLDNWLNKVNPHKVSPASSVDSNIPSSQGYKKEGREQGTGNSYTDTSGPKETSSATPGRDSKTIQKGSESGRGRQKSPAQSDSTTQRRTVGKKQPKKAEKAAAEEPRGGLKIESETPVDLASSMPSSRHKAATKGSRKPNIKKESKSSPRPTAEKKKYKSTSKSSQKSREIIETDTSSSDSDESESLPPSSQTPKYPESNRTPVKPSSVEEEDSFFRQRMFSPMEEKELLSPLSEPDDRYPLIVKIDLNLLTRIPGKPYKETEPPKGEKKNVPEKHTREAQKQASEKVSNKGKRKHKNEDDNRASESKKPKTEDKNSAGHKPSSNRESSKQSAAKEKDLLPSPAGPVPSKDPKTEHGSRKRTISQSSSLKSSSNSNKETSGSSKNSSSTSKQKKTEGKTSSSSKEVKEKAPSSSSNCPPSAPTLDSSKPRRTKLVFDDRNYSADHYLQEAKKLKHNADALSDRFEKAVYYLDAVVSFIECGNALEKNAQESKSPFPMYSETVDLIKYTMKLKNYLAPDATAADKRLTVLCLRCESLLYLRLFKLKKENALKYSKTLTEHLKNSYNNSQAPSPGLGSKAVGMPSPVSPKLSPGNSGNYSSGASSASASGSSVTIPQKIHQMAASYVQVTSNFLYATEIWDQAEQLSKEQKEFFAELDKVMGPLIFNASIMTDLVRYTRQGLHWLRQDAKLIS	binds	binds	binds	binds	
HCMV protein kinase pUL97, Flag-tagged (pUL97-Flag), P16788 1-707 (natural protein) MSSALRSRARSASLGTTTQGWDPPPLRRPSRARRRQWMREAAQAAAQAAVQAAQAAAAQVAQAHVDENEVVDLMADEAGGGVTTLTTLSSVSTTTVLGHATFSACVRSDVMRDGEKEDAASDKENLRRPVVPSTSSRGSAASGDGYHGLRCRETSAMWSFEYDRDGDVTSVRRALFTGGSDPSDSVSGVRGGRKRPLRPPLVSLARTPLCRRRVGGVDAVLEENDVELRAESQDSAVASGPGRIPQPLSGSSGEESATAVEADSTSHDDVHCTCSNDQIITTSIRGLTCDPRMFLRLTHPELCELSISYLLVYVPKEDDFCHKICYAVDMSDESYRLGQGSFGEVWPLDRYRVVKVARKHSETVLTVWMSGLIRTRAAGEQQQPPSLVGTGVHRGLLTATGCCLLHNVTVHRRFHTDMFHHDQWKLACIDSYRRAFCTLADAIKFLNHQCRVCHFDITPMNVLIDVNPHNPSEIVRAALCDYSLSEPYPDYNERCVAVFQETGTARRIPNCSHRLRECYHPAFRPMPLQKLLICDPHARFPVAGLRRYCMSELSALGNVLGFCLMRLLDRRGLDEVRMGTEALLFKHAGAACRALENGKLTHCSDACLLILAAQMSYGACLLGEHGAALVSHTLRFVEAKMSSCRVRAFRRFYHECSQTMLHEYVRKNVERLLATSDGLYLYNAFRRTTSIICEEDLDGDCRQLFPE					binds
